# Entries after “also recorded” stand apart in the source; their conditions may differ. At least one compound was matched to its structure with a doubt left. Some results were stated once for a whole list of compounds, not compound by compound. Peptide text beside a SMILES is read from it. * marks the point of attachment. Cbz = O=C(OCc1ccccc1)*; CHN2 = [N-]=[N+]=C*
# Columns and labels:
# cathepsin D = experiment: Cathepsin D up-regulation in hippocampal slice cultures (immunoblot); type: cell-based; settings: for potency of increasing cathepsin D levels (in words): hippocampal slice cultures, treated daily 3-6 days
# Method: The cultured slices were treated daily with different modulator concentrations for 3-6 days. […] BW1001 was not tested further due to its low potency.
# The hippocampal slices were maintained in culture for 10-12 days to stabilize, then were treated daily with different modulator concentrations for 3 days. Then they were harvested rapidly in ice-cold buffer and homogenized in the presence of protease inhibitors.
# Equal protein aliquots of the slice samples were subjected to immunoblotting to label the proform and the active form of cathepsin D (CD). FIG. 3A is an immunoblot showing PADK induced increases in the proform and active form of cathepsin D in hippocampal slice cultures. FIG. 3B is a graph showing the dose-dependent up-regulation of cathepsin D in hippocampal slice cultures by PADK and by BW1002.
# Slices were treated daily for 3 days with 10 μM compound, then harvested rapidly for immunoblot assessment of active CD levels (ANOVA: P<0.0001). FIG. 5 is a bar graph showing the results of these tests. The data in FIG. 5 indicate that the non-peptide lysosomal modulators provide potent lysosomal modulation that enhances clearance of pathogenic accumulations. All data represent means±SEM.
# aged mice = experiment: Aged mice: cathepsin B immunoblot and novel arm paradigm; type: in vivo; settings: 35 mg/kg x 10 days
# [1] = system: PDGF-APPSwInd transgenic mice; experiment: Synaptic protection in PDGF-APPSwInd transgenic mice (GluR1); type: in vivo; settings: daily i.p.; BW1005 45 mg/kg, BW1002 25 mg/kg
# Method: Modulator BW1005, was administered daily i.p. into an Alzheimer's Disease model —PDGF-APPSwInd transgenic mice. The transgenic mice are hemizygotes for a mutant form of the human APP gene containing both the Swedish (K670N/M671L) and the Indiana (V717F) mutations (APPSwInd). […] Based on its potency in relation to PADK's effect in slices and mice, BW1005 was injected i.p. daily at a dose of 45 mg/kg.
# The brains of the mice were dissected and assessed for the postsynaptic marker GluR1. […] FIG. 7 is a bar graph showing the mean GluR1 measure ±SEM for each group studied (post hoc test: p=0.05). […] Changes in cathepsin levels may explain the synaptic protection.
# [2] = system: material labeled by anti-Aβ1-42 antibody; experiment: Chloroquine-treated hippocampal slice model, anti-Aβ1-42 immunostaining; type: cell-based; settings: 6 days chloroquine, then 5 μM for 2 days
# cathepsin = experiment: Cathepsin enhancement and synaptic marker recovery in a protein accumulation model; type: cell-based
# Source text: Increased lysosomal enzyme activities are an indicator of cellular responses aimed at compensating for accumulating material. Evidence of compensatory up-regulation of lysosomal enzymes in response to lysosome stress and protein accumulation has led to the identification of a pharmacological avenue for promoting such responses. This pharmacological avenue has been used to identify and synthesize the compounds described herein, which are effective as lysosomal modulators. The base structures of PADK and Z-Phe-Phe-diazomethylketone (PPDK) were used for the design of new lysosomal modulators because PADK and PPDK enhance cathepsin levels at 0.3-10 μM, resulting in 70-80% recovery of synaptic markers that were lost in a protein accumulation model. Other modulators, including diazoacetyl-DL-2-aminohexanoic acid methyl ester, require up to 30 μM to produce neuroprotective effects, but result in only 24-42% synaptic recovery.
compound,measurement,setting,value
"O=C(NC(Cc1ccccc1)[C@H](O)CNCc1ccccc1)OCc1ccccc1 (stereo partly drawn) [BW1001, (2R,3S)-3-Cbz amino-2-hydroxy-4-phenyl-1-benzyl amino butane]",potency of increasing cathepsin D levels (in words),cathepsin D,low potency
"CC(=O)N(Cc1ccccc1)C[C@@H](O)C(Cc1ccccc1)NC(=O)OCc1ccccc1 (stereo partly drawn) [BW1002, (2R,3S)-3-Cbz amino-2-hydroxy-4-phenyl-1-(N-benzylacetamido) butane]",mice with increased cathepsin B (active form) in brain,aged mice,4 of 6
same,age-related deficit in novel arm entries,aged mice; Y maze,deficit appears to be eliminated
same,total time spent in the novel arm,aged mice; Y maze,such a result is also suggested
same,synaptic protection: postsynaptic marker GluR1 in brain,[1],significant synaptic protection; also recorded: greater than that provided by PADK
same,potency of increasing cathepsin D levels (in words),cathepsin D,more potent lysosomal enhancement than PADK
same,proform and active form of cathepsin D,"cathepsin D; slices treated daily for 3 days, immunoblot",increased
same,clearance of accumulated anti-Aβ1-42-labeled material in CA1,[2],promotes clearance of the accumulated material
"C[C@H](NC(=O)[C@H](Cc1ccccc1)NC(=O)OCc1ccccc1)C(=O)C=[N+]=[N-] [PADK, Z-Phe-Ala-diazomethylketone]",concentration at which cathepsin levels are enhanced,cathepsin,0.3 to 10 µM
"[N-]=[N+]=CC(=O)[C@H](Cc1ccccc1)NC(=O)[C@H](Cc1ccccc1)NC(=O)OCc1ccccc1 [PPDK, Z-Phe-Phe-diazomethylketone, reference compound] (Cbz-Phe-Phe-CHN2)",concentration at which cathepsin levels are enhanced,cathepsin,0.3 to 10 µM

# Reference: patent publication US8163953B2, “Compounds for lysosomal modulation and methods of use” (University of Connecticut, priority 2008, dated 2012)
